Positions count from the first letter of the chain named. In names and notes the source's numbering stands. Results are given in words; binding and its absence hold for the method and conditions named. A result given as binding can be weak or reduced; the word gives no strength. Where a sequence is shown, tags or fusion partners need not be part of it. For some of these results: Binding seen in cells or lysates may run through a third protein.
B1: 3-methyladenine DNA glycosylase I MsTAG (Ms5082), bacterial two-hybrid fusion (enzyme, UniProt A0R2E4 1-209)
chain: MTDGRVRCGWATPGSDGSTLYLDYHDTEWGRPLRDGDALFERVSLEAFQSGLSWLTILRKRENFRRAFHGFDPERVARYTDKDIERLMGDAGIVRNRAKIEATIANARAVEELDVDFGELLWSFAPPARPRPADMSQVPAVTPESTAMAKELKRRGFRFVGPTTAYALMQATGMVDDHVATCWVPPLRHGQDLRHAQAKAGSSHTLRPG
B2: MsTAG (Ms5082) expressed in M. smegmatis (enzyme, UniProt A0R2E4 1-209)
chain: B1 chain
B3: MsTAG-E46A expressed in M. smegmatis (enzyme, UniProt A0R2E4 1-209)
chain: B1 chain with E46A

Amino acid sequences for entries named in this document (tags omitted). A change or cut given only in a name is not applied to a line headed by its entry.
UniProt A0R7J4: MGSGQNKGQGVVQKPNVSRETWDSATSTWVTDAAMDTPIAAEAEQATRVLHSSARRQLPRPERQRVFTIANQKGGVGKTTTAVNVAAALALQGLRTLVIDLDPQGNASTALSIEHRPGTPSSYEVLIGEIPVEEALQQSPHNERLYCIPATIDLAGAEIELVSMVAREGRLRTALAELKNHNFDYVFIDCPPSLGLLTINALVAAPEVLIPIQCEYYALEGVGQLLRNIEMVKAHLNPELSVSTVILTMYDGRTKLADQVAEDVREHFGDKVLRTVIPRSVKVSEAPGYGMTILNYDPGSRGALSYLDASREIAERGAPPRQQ

How the values were obtained:
[1] = molecular target: T1, His-tagged MsTAG (M. smegmatis) (UniProt A0R2E4); assay: pull-down; equimolar GST-MsParA and His-tagged MsTAG mixed 2 h at 4°C in 20 mM Tris-HCl, 500 mM NaCl, 5 mM imidazole, pH 7.9; captured on Ni-NTA agarose, eluted with 250 mM imidazole; blot with anti-GST; both purified
T1 sequence: B1 chain

[2] = molecular target: MsParA (Ms6939), bacterial two-hybrid fusion (M. smegmatis); assay: two-hybrid; bacterial two-hybrid (BacterioMatch II, pBT and pTRG, E. coli XR reporter strain); growth on Selective Screening Medium with 5 mM 3-AT and 8 µg/ml streptomycin
[3] = molecular target: MsParA (Ms6939), endogenous in M. smegmatis (M. smegmatis (endogenous in M. smegmatis)) (UniProt A0R7J4); assay: co-IP; M. smegmatis cells with the TAG expression plasmid fixed with 1% formaldehyde; extract in TBSTT buffer incubated with MsParA antiserum and protein A Sepharose at 4°C; blot with anti-MsTAG antibody

| Molecule | binding [3] | other results |
| --- | --- | --- |
| GST-MsParA (from UniProt A0R7J4) |  | binding [1]: binds |
| B1 |  | binding [2]: binds |
| B2 | binds |  |
| B3 | binds |  |

— paper PMC3366916, “Characterization of a Conserved Interaction between DNA Glycosylase and ParA in Mycobacterium smegmatis and M. tuberculosis” (PLoS ONE, 2012)
